Experimental data published in patent US20190078093.

How the values were obtained:
EpCAM = EpCAM (UniProt P16422); assay: SELEX; details: identified by library screening to recognize EpCAM; target verification protocol by crosslinking; label: biotin
[1] = molecular target: 60S acidic ribosomal protein P1 (RPLP1) (UniProt P05386); assay: pull-down; details: VCaP exosomes; may be indirect; protein in an extract; label: 5' biotin; single-stranded DNA
[2] = molecular target: 60S ribosomal protein L30 (RPL30) (UniProt P62888); assay: pull-down; details: VCaP exosomes; may be indirect; protein in an extract; label: 5' biotin; single-stranded DNA
[3] = molecular target: T1, Charged multivesicular body protein 1b (CHMP1B) (UniProt Q7LBR1); assay: pull-down; details: VCaP exosomes; may be indirect; protein in an extract; label: 5' biotin; single-stranded DNA
T1 sequence (looked up, limits assumed): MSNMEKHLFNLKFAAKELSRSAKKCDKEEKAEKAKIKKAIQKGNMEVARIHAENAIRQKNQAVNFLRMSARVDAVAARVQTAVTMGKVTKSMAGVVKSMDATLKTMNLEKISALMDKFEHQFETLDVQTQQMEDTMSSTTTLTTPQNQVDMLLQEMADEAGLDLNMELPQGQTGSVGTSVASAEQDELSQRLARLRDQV

[4] = molecular target: Charged multivesicular body protein 2a (CHMP2A) (UniProt O43633); assay: pull-down; details: VCaP exosomes; may be indirect; protein in an extract; label: 5' biotin; single-stranded DNA
[5] = molecular target: T2, Charged multivesicular body protein 4b (CHMP4B) (UniProt Q9H444); assay: pull-down; details: VCaP exosomes; may be indirect; protein in an extract; label: 5' biotin; single-stranded DNA
T2 sequence (looked up, limits assumed): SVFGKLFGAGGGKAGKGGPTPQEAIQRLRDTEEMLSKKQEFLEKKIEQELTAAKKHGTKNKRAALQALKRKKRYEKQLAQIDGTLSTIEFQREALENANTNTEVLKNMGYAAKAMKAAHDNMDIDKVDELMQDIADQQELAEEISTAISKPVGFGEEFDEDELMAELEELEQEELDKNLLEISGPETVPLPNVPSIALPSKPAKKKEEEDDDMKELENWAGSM

[6] = system: T3, Cleavage and polyadenylation specificity factor subunit 7 (CPSF7); assay: pull-down; details: VCaP exosomes; may be indirect; protein in an extract; label: 5' biotin; single-stranded DNA
T3 sequence (looked up, limits assumed): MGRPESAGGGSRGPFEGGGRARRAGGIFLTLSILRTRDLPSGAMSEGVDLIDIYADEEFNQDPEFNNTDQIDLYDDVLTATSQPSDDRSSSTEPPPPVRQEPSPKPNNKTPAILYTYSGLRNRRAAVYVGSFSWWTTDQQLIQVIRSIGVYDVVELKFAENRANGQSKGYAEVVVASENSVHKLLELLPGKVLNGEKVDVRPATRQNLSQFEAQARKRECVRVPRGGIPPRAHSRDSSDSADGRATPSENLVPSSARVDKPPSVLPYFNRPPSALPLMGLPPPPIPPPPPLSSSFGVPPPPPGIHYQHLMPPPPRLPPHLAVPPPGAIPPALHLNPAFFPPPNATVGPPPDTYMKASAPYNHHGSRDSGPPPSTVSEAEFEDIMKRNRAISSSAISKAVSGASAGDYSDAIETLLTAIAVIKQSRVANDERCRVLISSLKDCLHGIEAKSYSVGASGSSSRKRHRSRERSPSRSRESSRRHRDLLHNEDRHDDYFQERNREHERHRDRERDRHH

[7] = system: T4, Cold-inducible RNA-binding protein isoform 3 (CIRBP); assay: pull-down; details: VCaP exosomes; may be indirect; protein in an extract; label: 5' biotin; single-stranded DNA
T4 sequence (looked up, limits assumed): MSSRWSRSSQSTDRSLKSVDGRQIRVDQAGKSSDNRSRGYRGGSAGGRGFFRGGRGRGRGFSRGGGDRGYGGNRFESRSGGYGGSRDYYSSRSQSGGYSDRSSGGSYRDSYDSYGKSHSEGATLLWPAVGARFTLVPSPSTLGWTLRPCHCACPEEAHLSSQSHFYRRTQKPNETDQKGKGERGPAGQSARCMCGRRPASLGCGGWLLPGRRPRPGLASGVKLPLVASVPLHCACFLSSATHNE

[8] = molecular target: DnaJ homolog subfamily A member 2 (DNAJA2) (UniProt O60884); assay: pull-down; details: VCaP exosomes; may be indirect; protein in an extract; label: 5' biotin; single-stranded DNA
[9] = molecular target: Latent-transforming growth factor beta-binding protein 2 (LTBP2) (UniProt Q14767); assay: pull-down; details: VCaP exosomes; may be indirect; protein in an extract; label: 5' biotin; single-stranded DNA
[10] = molecular target: Polypyrimidine tract-binding protein 1 isoform 3 (PTBP1) (UniProt P26599); assay: pull-down; details: VCaP exosomes; may be indirect; protein in an extract; label: 5' biotin; single-stranded DNA
Protein S100-A8 = Protein S100-A8 (UniProt P05109); assay: pull-down; details: VCaP exosomes; may be indirect; protein in an extract; label: 5' biotin; single-stranded DNA
[11] = molecular target: T5, RNA-binding protein 3 (RBM3) (UniProt P98179); assay: pull-down; details: VCaP exosomes; may be indirect; protein in an extract; label: 5' biotin; single-stranded DNA
T5 sequence (looked up, limits assumed): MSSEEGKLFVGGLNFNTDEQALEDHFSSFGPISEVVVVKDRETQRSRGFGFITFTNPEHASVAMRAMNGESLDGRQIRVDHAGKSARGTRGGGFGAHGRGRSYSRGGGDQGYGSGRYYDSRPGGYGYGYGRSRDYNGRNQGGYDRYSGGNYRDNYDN

Syntenin-1 (SDCBP) = Syntenin-1 (SDCBP) (UniProt O00560); assay: pull-down; details: VCaP exosomes; may be indirect; protein in an extract; label: 5' biotin; single-stranded DNA
[12] = molecular target: Translational activator GCN1 (UniProt Q92616); assay: pull-down; details: VCaP exosomes; may be indirect; protein in an extract; label: 5' biotin; single-stranded DNA
VPS28 isoform 2 = assay: pull-down; details: VCaP exosomes; may be indirect; protein in an extract; label: 5' biotin; single-stranded DNA

Sequence | selection result (EpCAM) | binding result [1] | binding result [2] | binding result [3] | binding result [4] | binding result [5] | binding result [6] | binding result [7] | binding result [8] | binding result [9] | binding result [10] | binding result (Protein S100-A8) | binding result [11] | binding result (Syntenin-1 (SDCBP)) | binding result [12] | binding result (VPS28 isoform 2)
AUCCAGAGUGACGCAGCAGUCUUUUCUGAUGGACACGUGGUGGUCUAGUAUCACUAAGCCACCGUGUCCA [CAR003] | selected | – | – | – | – | – | – | – | – | – | – | – | – | – | – | –
CTAGCATGACTGCAGTACGTTACTTAATTGGGGGGGGGGATTCTGTTTTGTCTCTCTGTCTCTTATACACATCTGACGCTGCCGACGA [Sequence 7 (Table 25)] | – | binds | binds | binds | binds | binds | binds | binds | binds | binds | binds | binds | binds | binds | binds | binds

For at least one entry, the source does not settle the construct or the ends of the probe. For some of these results: Where cells or extracts were used, other partners may take part. For some of these results: Where a protein sequence is shown, tags need not be part of it.
